Taken from: PubChem BioAssay AID652243 (Drosophila RNAi Screening Center, 2013)

Aim: 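Fly genes required for human androgen receptor driven transcription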 (primary screen)
Cells: Drosophila S2R+ cells
Reagent: long dsRNA against Drosophila genes
Timing: 72 h (48 h, then 24 h hormone)
Conditions: synthetic androgen R1881 at 10 nM for 24 h
Read-out: 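Firefly light from an androgen-responsive reporter and Renilla control light per well, raw and unnormalised, for each of two replicates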
Scale: firefly reporter light: higher = more light from androgen-responsive reporter; Renilla control light: higher = more constitutive control signal (cell number, transfection)
Rule for the call: 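Hit when the log firefly-to-Renilla ratio dropped or increased by a fixed fold versus the mean of GFP or LacZ controls across duplicate plates; lowering cut given as 1.5 and as 3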
Meaning of the calls: active = hit: reporter lowered or raised; inactive = no hit
The screen tested about 24,000 reagents; this is a random part of those with a known target gene and a result. Over the whole deposit, 246 (1%) are marked active. 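Plates not normalised; calls are printed but the firefly/Renilla ratio behind them is not deposited; fold cut for lowering reported inconsistently.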 Raw values are not corrected between plates. Names joined by + are all predicted targets of the reagent. The record does not give: the amount of reagent.

| target | DRSC id | firefly reporter light, replicate 1 | firefly reporter light, replicate 2 | Renilla control light, replicate 1 | Renilla control light, replicate 2 | Outcome |
| --- | --- | --- | --- | --- | --- | --- |
| CG5023 | DRSC15697 | 2.35e5 | 2.78e5 | 3.95e6 | 4.44e6 | inactive |
| CG12279 | DRSC14495 | 1.51e5 | 1.57e5 | 2.00e6 | 1.74e6 | inactive |
| Hr78 | DRSC11866 | 12473 | 16900 | 2.36e5 | 1.87e5 | inactive |
| Hr78 | DRSC27893 | 5.24e5 | 3.60e5 | 1.93e6 | 1.40e6 | inactive |
| CG10909 | DRSC14282 | 70868 | 80290 | 1.09e6 | 1.17e6 | inactive |
| ics | DRSC01878 | 9.49e5 | 1.63e6 | 1.84e6 | 2.97e6 | inactive |
| ics | DRSC29655 | 3.26e5 | 5.51e5 | 9.33e5 | 9.33e5 | inactive |
| CG5776 | DRSC02891 | 9.59e5 | 8.34e5 | 1.54e6 | 1.95e6 | inactive |
| CG15445 | DRSC20517 | 77504 | 63571 | 7.21e5 | 6.32e5 | inactive |
| Drep4 | DRSC03408 | 2.72e5 | 3.41e5 | 1.76e6 | 2.18e6 | inactive |
| Cks30A | DRSC03292 | 6.63e5 | 7.89e5 | 1.86e6 | 1.64e6 | inactive |
| Cks30A | DRSC36661 | – | – | – | – | inactive |
| MICAL-like | DRSC09829 | 1.12e6 | 9.02e5 | 1.65e6 | 1.59e6 | inactive |
| Csp | DRSC11860 | 90590 | 94375 | 7.45e5 | 6.31e5 | inactive |
| vlc | DRSC04922 | 3.57e5 | 3.74e5 | 2.40e6 | 2.40e6 | inactive |
| bai | DRSC14388 | 2.35e5 | 2.18e5 | 1.76e6 | 1.73e6 | inactive |
| CG30046 | DRSC06691 | 2.38e5 | 2.90e5 | 8.87e5 | 1.37e6 | inactive |
| eIF3l | DRSC10530 | 2.40e5 | 1.55e5 | 2.20e6 | 2.34e6 | inactive |
| eIF3l | DRSC26186 | 3.04e5 | 4.22e5 | 3.26e5 | 7.15e5 | inactive |
| CG33502 + CG32857 + CG32500 | DRSC20817 | 5.75e5 | 6.91e5 | 7.04e5 | 6.72e5 | inactive |
| CG33502 + CG32857 + CG32500 | DRSC21038 | 2.14e5 | 1.33e5 | 3.43e5 | 3.90e5 | inactive |
| CG1440 | DRSC17915 | 4.45e5 | 4.45e5 | 3.42e6 | 3.67e6 | inactive |
| Cbp80 | DRSC18450 | 71472 | 51009 | 6.31e5 | 3.85e5 | inactive |
| CG32109 | DRSC09816 | 3.02e5 | 2.09e5 | 3.29e6 | 2.32e6 | inactive |
| CG14861 | DRSC14984 | 1.37e5 | 1.32e5 | 2.12e6 | 2.09e6 | inactive |
| CG9083 + Tpc2 | DRSC04625 | 7.45e5 | 8.44e5 | 7.87e5 | 8.52e5 | inactive |
| CG9083 + Tpc2 | DRSC25523 | 6.71e5 | 7.83e5 | 9.22e5 | 1.09e6 | inactive |
| dtr | DRSC01847 | 3.27e5 | 4.29e5 | 7.98e5 | 6.60e5 | inactive |
| Cyp311a1 | DRSC20239 | 5.55e5 | 5.09e5 | 4.04e6 | 3.70e6 | inactive |
| Cyp311a1 | DRSC27062 | 6.30e5 | 5.04e5 | 7.57e5 | 4.83e5 | inactive |
| CG31342 | DRSC15349 | 18754 | 17741 | 1.96e5 | 1.73e5 | inactive |
| CG31342 | DRSC16246 | 1.25e5 | 1.02e5 | 1.92e6 | 1.58e6 | inactive |
| Coq6 | DRSC03040 | 2.92e5 | 3.69e5 | 1.57e6 | 1.48e6 | active |
| Coq6 | DRSC29622 | 7.99e5 | 6.42e5 | 9.68e5 | 9.68e5 | inactive |
| bru3 | DRSC09280 | 4.96e5 | 4.80e5 | 2.56e6 | 2.00e6 | inactive |
| bru3 | DRSC09687 | 7.09e5 | 4.59e5 | 1.86e6 | 1.69e6 | inactive |
| bru3 | DRSC09887 | 2.82e5 | 3.82e5 | 2.88e6 | 2.56e6 | inactive |
| bru3 | DRSC22732 | 3.02e5 | 4.24e5 | 1.37e6 | 7.86e5 | inactive |
| bru3 | DRSC28166 | 8.57e5 | 1.01e6 | 1.58e6 | 1.96e6 | inactive |
| bru3 | DRSC38591 | 6.37e5 | 5.76e5 | 1.07e6 | 1.04e6 | inactive |
| Tsp3A | DRSC18656 | 2.78e5 | 1.67e5 | 3.81e6 | 2.64e6 | inactive |
| Tsp3A | DRSC25654 | 3.42e5 | 2.85e5 | 1.16e6 | 8.77e5 | inactive |
| CG17029 | DRSC10240 | 1.84e5 | 2.01e5 | 2.58e6 | 2.49e6 | inactive |
| CG17029 | DRSC29418 | 4.19e5 | 4.50e5 | 1.25e6 | 1.25e6 | inactive |
| betaCOP | DRSC20312 | 77323 | 75358 | 5.09e5 | 5.59e5 | inactive |
| betaCOP | DRSC27169 | 2.22e5 | 3.08e5 | 4.82e5 | 4.54e5 | inactive |
| RpL23 | DRSC04648 | 97459 | 79132 | 7.81e5 | 5.85e5 | inactive |
| CG2691 | DRSC19866 | 89933 | 70986 | 6.51e5 | 5.93e5 | inactive |
| CG18417 | DRSC10319 | 1.61e5 | 1.62e5 | 2.15e6 | 2.03e6 | inactive |
| CG18417 | DRSC23997 | 7.70e5 | 6.65e5 | 8.01e5 | 6.56e5 | inactive |
| CG42557 + CG42558 | DRSC13963 | 1.39e6 | 8.01e5 | 3.70e6 | 1.80e6 | inactive |
| CG42557 + CG42558 | DRSC16329 | 87224 | 44819 | 6.37e5 | 4.11e5 | inactive |
| CG7091 | DRSC12944 | 1.29e5 | 96782 | 91399 | 1.39e5 | inactive |
| CG7091 | DRSC16197 | 77962 | 83947 | 1.88e6 | 1.63e6 | inactive |
| eIF4E4 | DRSC09701 | 1.43e5 | 1.12e5 | 1.51e6 | 1.73e6 | inactive |
| phr6-4 | DRSC03589 | 1.35e5 | 1.16e5 | 1.49e6 | 1.59e6 | inactive |
| phr6-4 | DRSC26873 | 2.76e5 | 3.74e5 | 4.04e5 | 4.55e5 | inactive |
| RpL36 | DRSC18708 | 1.70e5 | 1.84e5 | 1.88e6 | 1.74e6 | inactive |
| TwdlP | DRSC14734 | 2.38e5 | 2.90e5 | 2.54e6 | 2.25e6 | inactive |
| beag | DRSC15296 | 36570 | 53008 | 3.28e5 | 3.49e5 | inactive |
| cbt | DRSC00655 | 9.89e5 | 1.38e6 | 2.14e6 | 1.43e6 | inactive |
| cbt | DRSC26117 | 3.22e5 | 2.76e5 | 8.65e5 | 4.92e5 | inactive |
| oys | DRSC05203 | 1.68e5 | 77152 | 1.43e5 | 1.17e5 | inactive |
| oys | DRSC06751 | 1.02e6 | 9.73e5 | 1.31e6 | 1.11e6 | inactive |
| oys | DRSC26939 | 4.27e5 | 4.71e5 | 6.26e5 | 4.97e5 | inactive |
| beta'COP | DRSC03492 | 6.28e5 | 5.22e5 | 1.26e6 | 6.60e5 | inactive |
| beta'COP | DRSC26650 | 2.86e5 | 3.12e5 | 5.45e5 | 5.33e5 | inactive |
| Tusp | DRSC15838 | 1.39e5 | 1.88e5 | 2.27e6 | 3.04e6 | inactive |
| Cyp18a1 | DRSC20235 | 2.45e5 | 1.63e5 | 1.18e6 | 5.61e5 | inactive |
| Cyp18a1 | DRSC27063 | 4.56e5 | 3.87e5 | 7.71e5 | 7.03e5 | inactive |
| CCT7 | DRSC16410 | 98256 | 1.20e5 | 1.87e6 | 2.13e6 | inactive |
| CG17803 | DRSC15275 | 4.36e5 | 4.48e5 | 3.19e6 | 2.56e6 | inactive |
| CG17803 | DRSC22811 | 4.55e5 | 1.08e6 | 1.20e6 | 2.16e6 | inactive |
| Glyat | DRSC37806 | 6.73e5 | 6.46e5 | 2.15e6 | 2.18e6 | inactive |

8 neighbouring records from above:
| target | DRSC id | firefly reporter light, replicate 1 | firefly reporter light, replicate 2 | Renilla control light, replicate 1 | Renilla control light, replicate 2 | Outcome |
| --- | --- | --- | --- | --- | --- | --- |
| Tsp3A | DRSC25654 | 3.42e5 | 2.85e5 | 1.16e6 | 8.77e5 | inactive |
| CG17029 | DRSC10240 | 1.84e5 | 2.01e5 | 2.58e6 | 2.49e6 | inactive |
| CG17029 | DRSC29418 | 4.19e5 | 4.50e5 | 1.25e6 | 1.25e6 | inactive |
| betaCOP | DRSC20312 | 77323 | 75358 | 5.09e5 | 5.59e5 | inactive |
| betaCOP | DRSC27169 | 2.22e5 | 3.08e5 | 4.82e5 | 4.54e5 | inactive |
| RpL23 | DRSC04648 | 97459 | 79132 | 7.81e5 | 5.85e5 | inactive |
| CG2691 | DRSC19866 | 89933 | 70986 | 6.51e5 | 5.93e5 | inactive |
| CG18417 | DRSC10319 | 1.61e5 | 1.62e5 | 2.15e6 | 2.03e6 | inactive |
